Here are results for one molecule from paper PMC4678824.

Results are given in words; binding and its absence hold for the method and conditions named.

The target in the assay is full-length human GEN1 protein (human) (UniProt Q17RS7). The experiment in a line: condition: ~5 μg in 50 μl (size exclusion); ~15 μg in 150 μl (glycerol gradient); SEC + other: glycerol gradient sedimentation; Superdex 200 PC 3.2/30 at 4°C and 15-35% glycerol gradient (42,000 rpm, 16 h, 4°C), both in 40 mM Tris-HCl pH 7.5, 250 mM NaCl, 10% glycerol, 0.1 mM EDTA, 0.05% NP-40, 1 mM DTT; GEN1 detected by western blotting; native molecular weight calculated from Stokes radius and S-value; no DNA present; both purified.

B1: full-length human GEN1 protein (enzyme, UniProt Q17RS7 1-908)
chain: MGVNDLWQILEPVKQHIPLRNLGGKTIAVDLSLWVCEAQTVKKMMGSVMKPHLRNLFFRISYLTQMDVKLVFVMEGEPPKLKADVISKRNQSRYGSSGKSWSQKTGRSHFKSVLRECLHMLECLGIPWVQAAGEAEAMCAYLNAGGHVDGCLTNDGDTFLYGAQTVYRNFTMNTKDPHVDCYTMSSIKSKLGLDRDALVGLAILLGCDYLPKGVPGVGKEQALKLIQILKGQSLLQRFNRWNETSCNSSPQLLVTKKLAHCSVCSHPGSPKDHERNGCRLCKSDKYCEPHDYEYCCPCEWHRTEHDRQLSEVENNIKKKACCCEGFPFHEVIQEFLLNKDKLVKVIRYQRPDLLLFQRFTLEKMEWPNHYACEKLLVLLTHYDMIERKLGSRNSNQLQPIRIVKTRIRNGVHCFEIEWEKPEHYAMEDKQHGEFALLTIEEESLFEAAYPEIVAVYQKQKLEIKGKKQKRIKPKENNLPEPDEVMSFQSHMTLKPTCEIFHKQNSKLNSGISPDPTLPQESISASLNSLLLPKNTPCLNAQEQFMSSLRPLAIQQIKAVSKSLISESSQPNTSSHNISVIADLHLSTIDWEGTSFSNSPAIQRNTFSHDLKSEVESELSAIPDGFENIPEQLSCESERYTANIKKVLDEDSDGISPEEHLLSGITDLCLQDLPLKERIFTKLSYPQDNLQPDVNLKTLSILSVKESCIANSGSDCTSHLSKDLPGIPLQNESRDSKILKGDQLLQEDYKVNTSVPYSVSNTVVKTCNVRPPNTALDHSRKVDMQTTRKILMKKSVCLDRHSSDEQSAPVFGKAKYTTQRMKHSSQKHNSSHFKESGHNKLSSPKIHIKETEQCVRSYETAENEESCFPDSTKSSLSSLQCHKKENNSGTCLDSPLPLRQRLKLRFQST
Turning to B1, the binding result is listed as “no binding”.
